Experimental data reported in US20050153991A1 (Cyclacel Limited, priority 2003, published 2005).

Tested on: PKC

CC[C@H](CO)Nc1nc(NCc2ccccc2)c2ncn(C(C)C)c2n1 (racemic) [roscovitine, 2-[(1-ethyl-2-hydroxyethyl)amino]-6-benzylamine-9-isopropylpurine]
IC50: > 50 µM
